Molecules are shown by their SMILES.

The series can be described thus: Caco-2 permeability assay. The following applies: human. The procedure: 3.5. Caco-2 permeability assay
Transepithelial bi-directional transport of compounds (10 µM, pH 7.4/7.4) was tested on 21-day differentiated Caco-2 monolayers. Briefly, the cells were seeded at a density of 67 ,500 cells per 96-well plate insert (Millicell®, Merck KGaA, Darmstadt, Germany). They were left to differentiate for 21 days with medium exchange every 2–3 days. Prior to the experiment, the medium from both apical and basolateral well was exchanged for HBSS buffer (containing 10 mM HEPES and 25 mM glucose) and left to equilibrate for 30 min. […] After that, samples were collected from both apical inserts and basolateral wells and analyzed using LC -MS/MS (SCIEX Triple Quad™ 7500 QTRAP® Ready). […]
The apparent permeability coefficient (Papp) was calculated from t he following equation: Papp = (dQ / dt) / C0 * A, where dQ/dt is the rate of absorption of the drug across the cells, C0 is the donor compartment concentration at time zero, and A is the area of the monolayer. Efflux ratio was expressed as (Papp B -A) / (Papp A-B). Recovery (%) was determined as (total compound mass i n donor and receiver compartments at the end of the incubation / initial compound mass in the donor compartment) x 100. […]
On the technique in general: Passage across Caco-2 layers is used to estimate intestinal permeability.

Regarding `CC(C)NCC(O)COc1ccc(CC(N)=O)cc1` (centres unmarked) [Atenolol, reference compound], the Papp A→B at 2 h, 10 µM (Caco-2) stood at 0.3 ± 0.1 ×10⁻⁶ cm/s. Also, the recovery at 2 h, 10 µM (Caco-2, Recovery (%) A-B, Table S2, A to B transport) came out at 105%.

Broadly, the Papp A→B is the apparent permeability from the apical to the basolateral side of a cell layer.
